PubChem BioAssay AID1259298 | Sanger Institute – 2017

Screen: 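Kinase knock-downs that cut colorectal cancer cell viability or act with targeted drugs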 (primary screen)
Cells: HT55 human colorectal cancer cell line
Knock-down reagent: siRNA pool against human genes
Challenge: anchor drug BYL719 1 µM, cetuximab 5 µg/ml or trametinib 10 nM, or DMSO vehicle alone
Read-out: 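Replicate-averaged viability versus wells of non-targeting pool; knock-down-only robust z-score; per-drug synergy score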
Scale: robust z-score, knock-down alone: higher = more cells remaining; low means essential gene; viability vs control pool, no drug: higher = more viable cells
Units: viability vs control pool, no drug in fraction
Active means: 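Essential when the robust z-score for knock-down alone with DMSO is below -3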
Calls: active = essential (knock-down alone); inactive = no change alone
Shown is an unselected part of 794 deposited reagents. 20 of them (2.5%) count as active. 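Calls rest only on the knock-down-alone score; drug synergy scores played no part in them.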 Viability is capped at 1. Further read-outs or replicates are left out here. Reagent sequences are not shown. Not given: the amount of reagent, the time to read-out.

CDK18 (GeneID 5129)
- robust z-score, knock-down alone: 0.131
- viability vs control pool, no drug: 0.965
- outcome: inactive

SOX9 (GeneID 6662)
- robust z-score, knock-down alone: 0.58
- viability vs control pool, no drug: 1
- outcome: inactive

DDR1 (GeneID 780)
- robust z-score, knock-down alone: 0.58
- viability vs control pool, no drug: 1
- outcome: inactive

HIPK2 (GeneID 28996)
- robust z-score, knock-down alone: 0.58
- viability vs control pool, no drug: 1
- outcome: inactive

CSNK1A1 (GeneID 1452)
- robust z-score, knock-down alone: 0.58
- viability vs control pool, no drug: 1
- outcome: inactive

AK2 (GeneID 204)
- robust z-score, knock-down alone: 0.58
- viability vs control pool, no drug: 1
- outcome: inactive

CILK1 (GeneID 22858)
- robust z-score, knock-down alone: 0.58
- viability vs control pool, no drug: 1
- outcome: inactive

LATS2 (GeneID 26524)
- robust z-score, knock-down alone: 0.58
- viability vs control pool, no drug: 1
- outcome: inactive

PRKACB (GeneID 5567)
- robust z-score, knock-down alone: 0.58
- viability vs control pool, no drug: 1
- outcome: inactive

CDK4 (GeneID 1019)
- robust z-score, knock-down alone: 0.58
- viability vs control pool, no drug: 1
- outcome: inactive

Targets listed so far whose target name starts with C or c (4):
CDK18 (GeneID 5129)
- robust z-score, knock-down alone: 0.131
- viability vs control pool, no drug: 0.965
- outcome: inactive

CSNK1A1 (GeneID 1452)
- robust z-score, knock-down alone: 0.58
- viability vs control pool, no drug: 1
- outcome: inactive

CILK1 (GeneID 22858)
- robust z-score, knock-down alone: 0.58
- viability vs control pool, no drug: 1
- outcome: inactive

CDK4 (GeneID 1019)
- robust z-score, knock-down alone: 0.58
- viability vs control pool, no drug: 1
- outcome: inactive

The listing continues:
PKMYT1 (GeneID 9088)
- robust z-score, knock-down alone: -0.0828
- viability vs control pool, no drug: 0.948
- outcome: inactive

IP6K3 (GeneID 117283)
- robust z-score, knock-down alone: -1.56
- viability vs control pool, no drug: 0.833
- outcome: inactive

PIK3R1 (GeneID 5295)
- robust z-score, knock-down alone: 0.0746
- viability vs control pool, no drug: 0.961
- outcome: inactive

PIK3R2 (GeneID 5296)
- robust z-score, knock-down alone: 0.58
- viability vs control pool, no drug: 1
- outcome: inactive

RPS6KA1 (GeneID 6195)
- robust z-score, knock-down alone: 0.58
- viability vs control pool, no drug: 1
- outcome: inactive

GNE (GeneID 10020)
- robust z-score, knock-down alone: 0.58
- viability vs control pool, no drug: 1
- outcome: inactive

NLK (GeneID 51701)
- robust z-score, knock-down alone: 0.58
- viability vs control pool, no drug: 1
- outcome: inactive

DGKD (GeneID 8527)
- robust z-score, knock-down alone: 0.58
- viability vs control pool, no drug: 1
- outcome: inactive

TNK2 (GeneID 10188)
- robust z-score, knock-down alone: 0.58
- viability vs control pool, no drug: 1
- outcome: inactive
